Results: PubChem BioAssay AID248 (DTP/NCI, 2004)
The list is a part of this screen's results and no random one: it covers a few groups of compounds. Other doses and runs of a compound may be missing. T/C is the treated group as % of the vehicle group. Where survival is the endpoint, this PubChem deposit counts one and a half times the control or more as active, and values a quarter to a half above the control carry no call in these data; other NCI protocols may use other cut-offs. Schedules are NCI's codes, read here as Q, the interval in days (D) or hours (H), X, the number of doses. Some entries show no survivor count and are marked so; the dose need not have been tolerated. Some entries hold several experiments; the values are given in rising order. Brackets with × count equal records among those shown. Some schedule codes hold Z or #, which are not explained here.

System: L1210 leukemia ip in BDF1 mice, survival T/C
Experiment: NCI In Vivo Anticancer Drug Screen. Data for tumor model L1210 Leukemia (intraperitoneal) in B6D2F1 (BDF1) mice
Details: T/C endpoint: mean survival time, higher T/C = longer survival

CC(=O)OCC12CCC(C)=CC1OC1C(O)C(OC(C)=O)C2(C)C12CO2 (centres undefined)
T/C (dose: 0.02 mg/kg/injection, schedule: Q01DX009 (ip), vehicle: other): 93 [survivor count not shown], 108 [survivor count not shown], 115 % of control [survivor count not shown] | T/C (dose: 0.05 mg/kg/injection, schedule: Q01DX009 (ip), vehicle: other): 108 [survivor count not shown], 111 [survivor count not shown], 126 [survivor count not shown], 133 % of control [survivor count not shown] | T/C (dose: 0.05 mg/kg/injection, schedule: Q04DX003 (ip), vehicle: other): 124 % of control [survivor count not shown] | T/C (dose: 0.05 mg/kg/injection, schedule: Q#A X026 (ip), vehicle: saline): 97 % of control [survivor count not shown] | T/C (dose: 0.1 mg/kg/injection, schedule: Q01DX009 (ip), vehicle: other): 111 [survivor count not shown], 116 [survivor count not shown], 119 % of control [survivor count not shown] (2×) | T/C (dose: 0.1 mg/kg/injection, schedule: Q01DX013 (ip), vehicle: saline): 117 % of control [survivor count not shown] | T/C (dose: 0.1 mg/kg/injection, schedule: Q04DX003 (ip), vehicle: other): 125 % of control [survivor count not shown] | T/C (dose: 0.1 mg/kg/injection, schedule: Q#A X026 (ip), vehicle: saline): 108 % of control [survivor count not shown] | T/C (dose: 0.13 mg/kg/injection, schedule: Q01DX009 (ip), vehicle: saline): 118 % of control [survivor count not shown] | T/C (dose: 0.2 mg/kg/injection, schedule: Q01DX009 (ip), vehicle: other): 112 [survivor count not shown], 116 [survivor count not shown], 124 [survivor count not shown], 127 [survivor count not shown], 134 % of control [survivor count not shown] | T/C (dose: 0.2 mg/kg/injection, schedule: Q01DX013 (im), vehicle: saline): 104 % of control [survivor count not shown] | T/C (dose: 0.2 mg/kg/injection, schedule: Q01DX013 (ip), vehicle: saline): 114 % of control [survivor count not shown] | T/C (dose: 0.2 mg/kg/injection, schedule: Q01DX013 (sc), vehicle: saline): 110 % of control [survivor count not shown] | T/C (dose: 0.2 mg/kg/injection, schedule: Q04DX003 (ip), vehicle: other): 139 % of control [survivor count not shown] | T/C (dose: 0.2 mg/kg/injection, schedule: Q#A X026 (ip), vehicle: saline): 121 % of control [survivor count not shown] | T/C (dose: 0.25 mg/kg/injection, schedule: Q01DX001 (ip), vehicle: saline): 111 % of control [survivor count not shown] | T/C (dose: 0.25 mg/kg/injection, schedule: Q01DX009 (ip), vehicle: saline, evaluated on day 30): 125 % of control [survivor count not shown] | T/C (dose: 0.25 mg/kg/injection, schedule: Q01DX009 (ip), vehicle: saline, evaluated on day 60): 114 % of control [survivor count not shown] | T/C (dose: 0.25 mg/kg/injection, schedule: Q02DX005 (ip), vehicle: saline): 125 % of control [survivor count not shown] | T/C (dose: 0.25 mg/kg/injection, schedule: Q04DX003 (ip), vehicle: saline): 108 % of control [survivor count not shown] | T/C (dose: 0.25 mg/kg/injection, schedule: Q05DX001 (ip), vehicle: saline): 106 % of control [survivor count not shown] | T/C (dose: 0.4 mg/kg/injection, schedule: Q01DX009 (ip), vehicle: other): 119 [survivor count not shown], 129 [survivor count not shown], 138 [survivor count not shown], 140 [survivor count not shown], 178 % of control [survivor count not shown] | T/C (dose: 0.4 mg/kg/injection, schedule: Q01DX013 (im), vehicle: saline): 110 % of control [survivor count not shown] | T/C (dose: 0.4 mg/kg/injection, schedule: Q01DX013 (ip), vehicle: saline): 139 % of control [survivor count not shown] | T/C (dose: 0.4 mg/kg/injection, schedule: Q01DX013 (oral), vehicle: saline): 98 % of control [survivor count not shown] | T/C (dose: 0.4 mg/kg/injection, schedule: Q01DX013 (sc), vehicle: saline): 114 % of control [survivor count not shown] | T/C (dose: 0.4 mg/kg/injection, schedule: Q04DX003 (ip), vehicle: other): 143 % of control [survivor count not shown] | T/C (dose: 0.4 mg/kg/injection, schedule: Q#A X026 (ip), vehicle: saline): 117 % of control [survivor count not shown] | T/C (dose: 0.5 mg/kg/injection, schedule: Q01DX001 (ip), vehicle: saline): 108 % of control [survivor count not shown] | T/C (dose: 0.5 mg/kg/injection, schedule: Q01DX009 (ip), vehicle: acetone): 126 % of control [survivor count not shown] | T/C (dose: 0.5 mg/kg/injection, schedule: Q01DX009 (ip), vehicle: saline, evaluated on day 30): 127 % of control [survivor count not shown] | T/C (dose: 0.5 mg/kg/injection, schedule: Q01DX009 (ip), vehicle: saline, evaluated on day 60): 120 % of control [survivor count not shown] | T/C (dose: 0.5 mg/kg/injection, schedule: Q01DX009 (sc), vehicle: saline): 112 % of control [survivor count not shown] | T/C (dose: 0.5 mg/kg/injection, schedule: Q02DX005 (ip), vehicle: saline): 120 % of control [survivor count not shown] | T/C (dose: 0.5 mg/kg/injection, schedule: Q03DX003 (ip), vehicle: other): 108 % of control [survivor count not shown] | T/C (dose: 0.5 mg/kg/injection, schedule: Q04DX003 (ip), vehicle: saline): 120 % of control [survivor count not shown] | T/C (dose: 0.5 mg/kg/injection, schedule: Q05DX001 (ip), vehicle: saline): 111 % of control [survivor count not shown] | T/C (dose: 0.8 mg/kg/injection, schedule: Q01DX009 (ip), vehicle: other): 134 [survivor count not shown], 138 [survivor count not shown], 153 [survivor count not shown], 159 % of control [survivor count not shown] | T/C (dose: 0.8 mg/kg/injection, schedule: Q01DX013 (im), vehicle: saline): 141 % of control [survivor count not shown] | T/C (dose: 0.8 mg/kg/injection, schedule: Q01DX013 (ip), vehicle: saline): 131 % of control [survivor count not shown] | T/C (dose: 0.8 mg/kg/injection, schedule: Q01DX013 (oral), vehicle: saline): 108 % of control [survivor count not shown] | T/C (dose: 0.8 mg/kg/injection, schedule: Q#A X026 (ip), vehicle: saline): 132 % of control [survivor count not shown] | T/C (dose: 1.0 mg/kg/injection, schedule: Q01DX001 (ip), vehicle: saline): 108 % of control [survivor count not shown] | T/C (dose: 1.0 mg/kg/injection, schedule: Q01DX009 (ip), vehicle: acetone): 140 % of control [survivor count not shown] | T/C (dose: 1.0 mg/kg/injection, schedule: Q01DX009 (ip), vehicle: saline, evaluated on day 30): 129 % of control [survivor count not shown] | T/C (dose: 1.0 mg/kg/injection, schedule: Q01DX009 (ip), vehicle: saline, evaluated on day 60): 125 % of control [survivor count not shown] | T/C (dose: 1.0 mg/kg/injection, schedule: Q01DX009 (sc), vehicle: saline): 115 % of control [survivor count not shown] | T/C (dose: 1.0 mg/kg/injection, schedule: Q02DX005 (ip), vehicle: saline): 127 % of control [survivor count not shown] | T/C (dose: 1.0 mg/kg/injection, schedule: Q03DX003 (ip), vehicle: other): 115 % of control [survivor count not shown] | T/C (dose: 1.0 mg/kg/injection, schedule: Q04DX003 (ip), vehicle: saline): 115 % of control [survivor count not shown] | T/C (dose: 1.0 mg/kg/injection, schedule: Q05DX001 (ip), vehicle: saline): 106 % of control [survivor count not shown] | T/C (dose: 1.2 mg/kg/injection, schedule: Q01DX009 (ip), vehicle: other): 150 % of control [survivor count not shown] | T/C (dose: 1.6 mg/kg/injection, schedule: Q01DX009 (ip), vehicle: other): 94 [survivor count not shown], 151 [survivor count not shown], 153 [survivor count not shown], 159 [survivor count not shown], 198 % of control [survivor count not shown] | T/C (dose: 1.6 mg/kg/injection, schedule: Q01DX013 (im), vehicle: saline): 118 % of control [survivor count not shown] | T/C (dose: 1.6 mg/kg/injection, schedule: Q01DX013 (ip), vehicle: saline): 145 % of control [survivor count not shown] | T/C (dose: 1.6 mg/kg/injection, schedule: Q01DX013 (sc), vehicle: saline): 159 % of control [survivor count not shown] | T/C (dose: 2.0 mg/kg/injection, schedule: Q01DX001 (ip), vehicle: saline, evaluated on day 30): 113 % of control [survivor count not shown] | T/C (dose: 2.0 mg/kg/injection, schedule: Q01DX001 (ip), vehicle: saline, evaluated on day 60): 110 % of control [survivor count not shown] | T/C (dose: 2.0 mg/kg/injection, schedule: Q01DX009 (ip), vehicle: acetone): 136 % of control [survivor count not shown] | T/C (dose: 2.0 mg/kg/injection, schedule: Q01DX009 (ip), vehicle: other): 141 % of control [survivor count not shown] | T/C (dose: 2.0 mg/kg/injection, schedule: Q01DX009 (ip), vehicle: saline, evaluated on day 30): 155 % of control [survivor count not shown] | T/C (dose: 2.0 mg/kg/injection, schedule: Q01DX009 (ip), vehicle: saline, evaluated on day 60): 129 % of control [survivor count not shown] | T/C (dose: 2.0 mg/kg/injection, schedule: Q01DX009 (sc), vehicle: saline): 133 % of control [survivor count not shown] | T/C (dose: 2.0 mg/kg/injection, schedule: Q02DX005 (ip), vehicle: saline): 125 % of control [survivor count not shown] | T/C (dose: 2.0 mg/kg/injection, schedule: Q03DX003 (ip), vehicle: other): 108 % of control [survivor count not shown] | T/C (dose: 2.0 mg/kg/injection, schedule: Q04DX003 (ip), vehicle: saline, evaluated on day 30): 115 % of control [survivor count not shown] | T/C (dose: 2.0 mg/kg/injection, schedule: Q04DX003 (ip), vehicle: saline, evaluated on day 60): 115 % of control [survivor count not shown] | T/C (dose: 2.0 mg/kg/injection, schedule: Q04DX003 (oral), vehicle: saline): 108 % of control [survivor count not shown] | T/C (dose: 2.0 mg/kg/injection, schedule: Q05DX001 (ip), vehicle: saline): 104 % of control [survivor count not shown]
